Reference: patent publication US9625448B2, “Double caged GABA compounds, bis-CNB-GABA” (The Trustees of Princeton University, priority 2014, dated 2017)

System: cerebellar molecular layer interneurons
Experiment: Photolysis-evoked GABAergic currents in cerebellar molecular layer interneurons
Format: cell-based
Conditions: n=3
Experimental: The biological properties of our synthetic bis-CNB-GABA were evaluated using whole-cell patch recording from cerebellar molecular layer interneurons.
FIGS. 42A-42E illustrate physiological responses to photolysis of bis-CNB-GABA. FIG. 42A illustrates a cerebellar molecular layer interneuron visualized using Alexa 488 in the patch recording electrode solution. Referring to FIG. 42A, bis-CNB-GABA (0.6 mM) was photolyzed with a 405 nm laser spot in 3 different locations (indicated by 1, 2 and 3). Still referring to FIG. 42A, laser-evoked GABAergic currents are shown on the right panel. Still referring to FIG. 42A, gray traces show individual sweeps and black traces are averages. Still referring to FIG. 42A, the gray sweep at bottom indicates the laser flash (1 ms duration, intensity 5 mW) as recorded using a photodiode. FIG. 42B illustrates bis-CNB-GABA (1.4 mM) was photolyzed with a […] LED at progressively higher flash energies (0.25-1.1 mW, 5-50 ms, 1.25-55 μJ). FIG. 42C illustrates the same experiment as shown in FIG. 42B with Responses to mono-CNB-GABA (50 μM). […] FIG. 42E illustrates laser-evoked whole-cell current recorded in the absence and presence of 3 μM gabazine, a GABA receptor antagonist. […]
To test whether bis-CNB-GABA-evoked responses resemble physiological events in their kinetics, we measured the kinetic properties of flash responses. […]

Row | SMILES | log-log slope, evoked current amplitude vs flash energy
1 | O=C(CCCNC(C(=O)O)c1ccccc1[N+](=O)[O-])OC(C(=O)O)c1ccccc1[N+](=O)[O-] (centres unmarked) [bis-CNB-GABA, 2-((4-(Carboxy(2-nitrophenyl)methoxy)-4-oxobutyl)amino)-2-(2-nitrophenyl)acetic acid] | 2.2±0.1
2 | NCCCC(=O)OC(C(=O)O)c1ccccc1[N+](=O)[O-] (centres unmarked) [mono-CNB-GABA] | 1.3±0.1
